In article PMC3807668, “Structure of the CRISPR Interference Complex CSM Reveals Key Similarities with Cascade” (Molecular Cell, 2013) one finds binding data, which are given here for 6 molecules.

These are yes or no findings as the source states them, for the method shown. Binding seen in cells or lysates may run through a third protein. These calls come from enrichment with a bait or labelling near it, and not all partners need be listed. Where a sequence is shown, tags or fusion partners need not be part of it.

The test concerns the target T1, Sso1431 with C-terminal tandem tag (Strep and 10x His) (S. solfataricus) (UniProt Q97YA1).
T1 sequence (chain, methylation; phosphorylation (residues not printed)): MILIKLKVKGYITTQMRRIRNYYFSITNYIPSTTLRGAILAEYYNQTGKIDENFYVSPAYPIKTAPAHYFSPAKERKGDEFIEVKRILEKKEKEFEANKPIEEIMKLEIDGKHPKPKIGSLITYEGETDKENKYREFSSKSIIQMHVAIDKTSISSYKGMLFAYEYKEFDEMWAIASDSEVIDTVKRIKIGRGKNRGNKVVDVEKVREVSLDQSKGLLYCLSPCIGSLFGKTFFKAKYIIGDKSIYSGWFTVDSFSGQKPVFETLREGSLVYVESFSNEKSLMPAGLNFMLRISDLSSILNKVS
Kind of test: affinity purification with mass spectrometry; C-terminal Strep-10x His tag on Sso1428 or Sso1431 expressed in S. solfataricus; HisTrap, monoQ and S500 gel filtration; single peak in the last step; subunits seen by SDS-PAGE and MS. For orientation: SEC sorts molecules by how far they enter the pores of the column.

B1: Sso1432 (natural protein, UniProt Q97YA0 1-252, looked up)
chain: MVIQVFRLNFRLRTGFRVGGGQEVGDNVIRQLRIGVEGVMIPASSWKGMFRRVSEIVLNSEDHFEEHSKKEVDTRTINALLKSDEKFRRIAISKVGKEVITQNGINVDKLDSESLSDLRRIYNEYNCPIERLYGSNYFAGGITISDSVIPNASIMERTHVTIERKSKKASEKHLFSEEIIDAEKIEVKVIVRNEFELWKNSLKLLREIGYFIGGSKSRGIGYIVLDEKESEYAVINNFSETPKFSELKRYLS
modifications: methylation (residues not given)
notes: Sso1432, RAMP subunit of the CSM complex of S. solfataricus; also called RAMP subunit; Csm3 paralog; source: endogenous, S. solfataricus PH1-16; co-purified with the tagged subunit (HisTrap, monoQ, gel filtration)
For the molecule B1, the binding result was “binds”.

B2: Sso1430 (natural protein, UniProt Q97YA2 1-206, looked up)
chain: MIPIKVSMRNLSSLTIAGGSTISSIDIPLNPLGVPPSTIKGTMRTAVHNLLPNGYTSCGEVEPESIREAHKNGVCDVCKLFGYPDSLTGCFTIDVSKTDYRTSYITRVSIDDKTQRAKEGSLFTQQIILPNSDISFTVYYNCNDERLFKLLLYSILDLRYWRLGRNTMIDVKVNNVEEICKSVKCDEEINGILNQLSRYLWEAENK
modifications: methylation (residues not given)
notes: Sso1430, subunit of the CSM complex of S. solfataricus; also called RAMP subunit; Csm3 paralog; source: endogenous, S. solfataricus PH1-16; co-purified with the tagged subunit (HisTrap, monoQ, gel filtration)
Consider B2, for which the binding result is on record as “binds”.

B3: Sso1427 (natural protein, UniProt Q97YA5 1-275, looked up)
chain: MQRSPIRRSNYTPRNEKGLEGVIELQLNVVSDYLHVGSGKYDVEVMRSVSDVKRLVEDYLSGGNKRIPNNVDQYFSMVAFLMVRNKDNVVIPGSTIKGMVRSRLELSVPGSCYIVTGHSTSSSAVYKRIFNPDPNRGSDRFDVNKFPQVCPVCDLLGNMGLASRVSLSDFVMTSGKVDYVNVKGRDYEVVTKGSIFAGKVLYKSLKPVEIGMLLYGFGFVKDCNGSKVMLLGRFKFSDKRFGRVKFSLKTPIADCNKLVSDFVKQFNPRYINEEW
modifications: methylation (residues not given)
notes: Sso1427, RAMP subunit of the CSM complex of S. solfataricus; its mass lies within 70 Da of that of Sso1426; also called RAMP subunit; Csm3 paralog; source: endogenous, S. solfataricus PH1-16; co-purified with the tagged subunit (HisTrap, monoQ, gel filtration)
For the molecule B3, the binding entry is reported as “binds”.

B4: Sso1424 (natural protein, UniProt Q97YA8 16-139, looked up)
chain: SSQDLLDIATRIAISAIKPKPKSNKPEPYVDSSTINSLLSFLQSRRNVNELLLYIMRQAGRDEIDEETGKLLLASLKDRELKDAVNLLGYVKWVYDTLTGLKVNYNNVKGVKTFKELVNILSKV
modifications: acetylated N-terminal Ser-16; seven methylated lysines (positions not given)
notes: Sso1424, small subunit (probably Csm2) of the CSM complex of S. solfataricus; three copies in the CSM complex; also called small subunit; Csm2; source: endogenous, S. solfataricus PH1-16; co-purified with the tagged subunit (HisTrap, monoQ, gel filtration)
With B4, the binding entry is on record as “binds”.

B5: Sso1425 (natural protein, UniProt Q97YA7 1-250, looked up)
chain: MKMSCMDLDVITTVVKIEGKLRNETLLRVGKGKTQDFAEATDNPIIKYRDRPLIPGSSLKGAFRSLVESYTKSLNDSKYYVCDLDDNSCVSCEEKKKDNGIVEGRYCIPCILFGFKDLASRVYILDAIAEKYSISQRTMVAINRVFGGQMPGHLYTLDYVDPGSEFSFMMMIYNLNLIEGEKDWKAKSVEALKFLLATLVREGIFVGARKSVGYGLIKLVDAKVSLYKAPDHLVSPVIVKKLEEVIGTNG
modifications: methylation; phosphorylation (residues not given)
notes: Sso1425, RAMP subunit of the CSM complex of S. solfataricus; also called RAMP subunit; Csm3 paralog; source: endogenous, S. solfataricus PH1-16; co-purified with the tagged subunit (HisTrap, monoQ, gel filtration)
Turning to B5, the binding entry is “binds”.

B6: Sso1426 (natural protein, UniProt Q97YA6 1-281, looked up)
chain: MVLMVNYTFIDKRVIKRTTMIEGDVETVSPLKIGGGKDNFDPSSLAKDSILKDVEGRPIIPGSSWKGIFRSTGERILRLRNIEVCSGIGKDYCLNNNRKERDFNSALKENVDQALEIFWDYTCLNCKVFGTMSVIGAVRFLDSLPISYSLNTRSMIAISRTEGAVARRALVTVEYVDVGSKFSFKMMGYNLPNYAIGYLITIMKNIHDGFTQVGGHKSRGFGFVKFGKVKFTDLGEKRIGDEDIQVKDVGDLVEGNGDEFFGRMKPFMEAFNNAKIPYPKK
modifications: methylation (residues not given)
notes: Sso1426, RAMP subunit assigned to the Csm3 (Cas7-like) family, CSM complex of S. solfataricus; four copies in the CSM complex; its mass lies within 70 Da of that of Sso1427; also called Csm3; Cas7 family RAMP subunit; source: endogenous, S. solfataricus PH1-16; co-purified with the tagged subunit (HisTrap, monoQ, gel filtration)
Take B6: the binding result was “binds”.
